Results: the supplement of paper PMC12819154, “High-throughput peptide-centric local stability assay extends protein–ligand identification to membrane proteins, tissues and bacteria” (Nature Structural & Molecular Biology, 2025)
This is one part of the list. Small differences around the control level are noise.

Amino acid sequences for entries named in this document (tags omitted). A change or cut given only in a name is not applied to a line headed by its entry.
UniProt Q8VCM4: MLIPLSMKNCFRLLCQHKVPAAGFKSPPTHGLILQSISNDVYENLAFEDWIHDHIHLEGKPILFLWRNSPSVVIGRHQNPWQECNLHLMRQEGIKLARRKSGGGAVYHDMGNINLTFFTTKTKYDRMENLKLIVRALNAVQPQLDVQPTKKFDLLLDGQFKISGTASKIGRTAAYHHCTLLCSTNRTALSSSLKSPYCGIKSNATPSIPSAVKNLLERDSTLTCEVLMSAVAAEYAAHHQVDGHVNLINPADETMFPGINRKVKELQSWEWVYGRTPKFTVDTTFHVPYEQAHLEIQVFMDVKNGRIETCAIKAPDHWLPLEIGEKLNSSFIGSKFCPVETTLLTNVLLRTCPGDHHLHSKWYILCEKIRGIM
UniProt Q8VCP8, whole entry: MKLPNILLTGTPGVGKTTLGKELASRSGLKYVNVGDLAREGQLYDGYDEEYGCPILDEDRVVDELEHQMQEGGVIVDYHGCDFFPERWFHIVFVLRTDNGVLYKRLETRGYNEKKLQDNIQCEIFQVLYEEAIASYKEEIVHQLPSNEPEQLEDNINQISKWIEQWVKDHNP
UniProt Q8R4R6: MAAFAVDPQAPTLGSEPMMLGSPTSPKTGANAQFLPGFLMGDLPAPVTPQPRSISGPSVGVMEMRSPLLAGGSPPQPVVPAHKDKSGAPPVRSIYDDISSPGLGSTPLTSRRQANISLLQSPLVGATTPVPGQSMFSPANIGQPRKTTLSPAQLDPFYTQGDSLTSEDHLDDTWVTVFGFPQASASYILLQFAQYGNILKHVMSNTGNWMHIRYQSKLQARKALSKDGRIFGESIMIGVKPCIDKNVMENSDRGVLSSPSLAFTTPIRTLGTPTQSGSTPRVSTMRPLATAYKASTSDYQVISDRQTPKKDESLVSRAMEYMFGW
UniProt Q8R370: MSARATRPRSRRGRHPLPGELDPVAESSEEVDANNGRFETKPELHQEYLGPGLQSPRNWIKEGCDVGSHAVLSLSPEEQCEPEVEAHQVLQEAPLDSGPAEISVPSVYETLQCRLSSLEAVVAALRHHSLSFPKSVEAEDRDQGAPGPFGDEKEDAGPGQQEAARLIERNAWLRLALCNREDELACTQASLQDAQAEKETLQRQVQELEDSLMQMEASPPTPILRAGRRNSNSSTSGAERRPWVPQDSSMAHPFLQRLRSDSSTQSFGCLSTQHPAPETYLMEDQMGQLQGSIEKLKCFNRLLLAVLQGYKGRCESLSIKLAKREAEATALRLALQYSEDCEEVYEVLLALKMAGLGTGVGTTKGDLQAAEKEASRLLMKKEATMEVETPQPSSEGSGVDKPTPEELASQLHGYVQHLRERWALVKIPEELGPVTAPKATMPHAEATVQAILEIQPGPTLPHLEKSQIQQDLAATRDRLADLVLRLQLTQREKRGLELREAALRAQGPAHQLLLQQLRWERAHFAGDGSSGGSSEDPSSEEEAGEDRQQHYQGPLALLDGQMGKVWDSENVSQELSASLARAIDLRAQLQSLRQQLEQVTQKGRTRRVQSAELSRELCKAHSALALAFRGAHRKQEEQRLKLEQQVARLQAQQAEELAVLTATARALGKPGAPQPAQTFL
UniProt Q8R5F7: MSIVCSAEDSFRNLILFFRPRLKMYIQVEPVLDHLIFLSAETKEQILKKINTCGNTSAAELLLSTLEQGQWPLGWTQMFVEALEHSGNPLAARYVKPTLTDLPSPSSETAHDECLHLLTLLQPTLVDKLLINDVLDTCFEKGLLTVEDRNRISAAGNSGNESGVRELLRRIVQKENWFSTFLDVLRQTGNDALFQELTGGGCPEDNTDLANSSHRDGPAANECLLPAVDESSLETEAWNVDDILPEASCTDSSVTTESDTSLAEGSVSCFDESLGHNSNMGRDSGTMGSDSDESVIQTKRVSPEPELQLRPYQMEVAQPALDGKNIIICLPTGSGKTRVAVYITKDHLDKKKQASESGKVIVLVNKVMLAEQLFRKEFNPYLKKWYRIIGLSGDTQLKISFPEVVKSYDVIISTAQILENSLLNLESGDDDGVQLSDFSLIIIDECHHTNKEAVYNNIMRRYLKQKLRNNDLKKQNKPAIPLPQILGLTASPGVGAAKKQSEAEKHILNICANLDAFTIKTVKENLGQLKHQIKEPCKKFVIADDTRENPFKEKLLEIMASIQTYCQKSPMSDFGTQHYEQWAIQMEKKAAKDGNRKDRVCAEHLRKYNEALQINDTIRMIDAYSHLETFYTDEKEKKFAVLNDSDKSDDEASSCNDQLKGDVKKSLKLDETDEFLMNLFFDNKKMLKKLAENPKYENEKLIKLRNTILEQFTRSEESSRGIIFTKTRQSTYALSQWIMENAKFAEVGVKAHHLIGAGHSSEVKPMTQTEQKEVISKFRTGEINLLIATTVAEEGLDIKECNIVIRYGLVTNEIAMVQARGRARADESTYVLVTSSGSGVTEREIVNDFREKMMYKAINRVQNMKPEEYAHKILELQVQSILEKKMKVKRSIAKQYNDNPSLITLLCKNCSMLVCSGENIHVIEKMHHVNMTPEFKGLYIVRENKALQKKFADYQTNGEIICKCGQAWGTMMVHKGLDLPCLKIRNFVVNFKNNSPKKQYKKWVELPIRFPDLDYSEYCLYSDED
UniProt Q8VCG4: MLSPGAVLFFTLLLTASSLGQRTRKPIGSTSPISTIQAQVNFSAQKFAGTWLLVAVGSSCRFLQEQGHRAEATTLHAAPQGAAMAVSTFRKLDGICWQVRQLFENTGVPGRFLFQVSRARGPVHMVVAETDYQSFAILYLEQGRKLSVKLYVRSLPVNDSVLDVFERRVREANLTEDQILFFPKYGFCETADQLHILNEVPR
UniProt Q8R3C0: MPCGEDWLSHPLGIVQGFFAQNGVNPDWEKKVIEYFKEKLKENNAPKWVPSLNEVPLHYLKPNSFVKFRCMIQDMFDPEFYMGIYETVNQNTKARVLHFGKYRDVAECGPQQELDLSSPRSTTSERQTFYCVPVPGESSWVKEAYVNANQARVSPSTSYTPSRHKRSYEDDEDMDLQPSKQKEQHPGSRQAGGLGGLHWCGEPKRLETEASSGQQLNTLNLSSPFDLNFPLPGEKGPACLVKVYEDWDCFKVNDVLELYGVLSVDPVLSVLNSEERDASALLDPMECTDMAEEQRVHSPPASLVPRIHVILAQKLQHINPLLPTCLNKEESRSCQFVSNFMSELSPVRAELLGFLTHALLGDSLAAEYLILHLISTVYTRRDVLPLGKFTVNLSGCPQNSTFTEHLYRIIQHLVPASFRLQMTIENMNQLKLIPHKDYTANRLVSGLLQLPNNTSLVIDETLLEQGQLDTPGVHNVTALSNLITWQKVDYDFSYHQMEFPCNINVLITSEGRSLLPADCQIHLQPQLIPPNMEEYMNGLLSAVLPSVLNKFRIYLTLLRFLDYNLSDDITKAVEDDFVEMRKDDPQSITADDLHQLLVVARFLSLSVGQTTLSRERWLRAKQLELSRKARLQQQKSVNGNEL
UniProt Q8R344: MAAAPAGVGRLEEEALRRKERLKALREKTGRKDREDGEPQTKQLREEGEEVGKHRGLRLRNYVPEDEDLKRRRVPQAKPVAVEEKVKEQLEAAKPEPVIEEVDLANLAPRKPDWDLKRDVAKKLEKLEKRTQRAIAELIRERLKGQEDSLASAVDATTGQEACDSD
UniProt Q8R322: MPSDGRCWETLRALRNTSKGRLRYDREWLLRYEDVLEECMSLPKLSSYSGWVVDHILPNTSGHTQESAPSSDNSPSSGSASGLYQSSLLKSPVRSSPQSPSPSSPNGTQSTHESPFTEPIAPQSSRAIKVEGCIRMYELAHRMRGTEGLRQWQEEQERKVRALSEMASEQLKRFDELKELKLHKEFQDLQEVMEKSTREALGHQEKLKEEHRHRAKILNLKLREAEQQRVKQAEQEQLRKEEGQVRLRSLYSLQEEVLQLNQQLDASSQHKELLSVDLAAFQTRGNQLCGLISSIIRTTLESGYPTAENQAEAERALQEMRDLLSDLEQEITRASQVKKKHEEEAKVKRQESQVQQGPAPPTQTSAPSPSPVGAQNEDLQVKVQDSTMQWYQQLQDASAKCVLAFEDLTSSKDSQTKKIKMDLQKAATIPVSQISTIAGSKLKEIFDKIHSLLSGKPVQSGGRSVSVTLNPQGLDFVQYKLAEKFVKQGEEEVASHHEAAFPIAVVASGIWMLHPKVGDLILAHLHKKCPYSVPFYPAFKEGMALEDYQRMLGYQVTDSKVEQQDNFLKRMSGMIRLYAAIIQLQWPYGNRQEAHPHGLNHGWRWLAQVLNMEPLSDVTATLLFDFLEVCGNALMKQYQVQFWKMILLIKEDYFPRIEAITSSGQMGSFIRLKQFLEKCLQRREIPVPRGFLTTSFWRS
UniProt Q8R3I3: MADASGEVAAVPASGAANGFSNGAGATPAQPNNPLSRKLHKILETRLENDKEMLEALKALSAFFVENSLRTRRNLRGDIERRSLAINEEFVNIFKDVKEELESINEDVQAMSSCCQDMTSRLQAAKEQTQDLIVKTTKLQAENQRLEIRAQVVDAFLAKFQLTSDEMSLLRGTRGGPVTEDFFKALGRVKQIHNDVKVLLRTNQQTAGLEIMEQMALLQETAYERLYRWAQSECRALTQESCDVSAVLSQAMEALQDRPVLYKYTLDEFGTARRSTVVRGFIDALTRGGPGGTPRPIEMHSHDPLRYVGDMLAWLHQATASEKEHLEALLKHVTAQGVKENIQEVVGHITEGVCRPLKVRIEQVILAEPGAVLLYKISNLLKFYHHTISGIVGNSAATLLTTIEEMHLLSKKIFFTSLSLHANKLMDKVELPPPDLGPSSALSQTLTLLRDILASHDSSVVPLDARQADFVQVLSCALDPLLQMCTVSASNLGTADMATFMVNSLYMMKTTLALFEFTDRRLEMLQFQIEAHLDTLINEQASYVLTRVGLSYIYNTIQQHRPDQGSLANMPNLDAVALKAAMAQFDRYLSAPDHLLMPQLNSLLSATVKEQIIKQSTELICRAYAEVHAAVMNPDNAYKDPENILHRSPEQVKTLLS
UniProt Q8R3H9: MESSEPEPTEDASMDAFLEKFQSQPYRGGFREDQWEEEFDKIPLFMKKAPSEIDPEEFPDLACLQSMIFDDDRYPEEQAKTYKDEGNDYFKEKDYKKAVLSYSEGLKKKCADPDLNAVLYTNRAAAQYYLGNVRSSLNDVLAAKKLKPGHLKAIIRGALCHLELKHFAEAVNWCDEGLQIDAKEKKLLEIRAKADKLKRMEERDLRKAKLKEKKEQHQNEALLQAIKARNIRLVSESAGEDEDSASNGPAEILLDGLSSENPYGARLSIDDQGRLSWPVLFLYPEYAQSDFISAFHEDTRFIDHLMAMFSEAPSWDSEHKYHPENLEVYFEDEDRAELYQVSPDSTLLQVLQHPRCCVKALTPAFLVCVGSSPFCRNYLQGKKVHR
UniProt Q8VDM1: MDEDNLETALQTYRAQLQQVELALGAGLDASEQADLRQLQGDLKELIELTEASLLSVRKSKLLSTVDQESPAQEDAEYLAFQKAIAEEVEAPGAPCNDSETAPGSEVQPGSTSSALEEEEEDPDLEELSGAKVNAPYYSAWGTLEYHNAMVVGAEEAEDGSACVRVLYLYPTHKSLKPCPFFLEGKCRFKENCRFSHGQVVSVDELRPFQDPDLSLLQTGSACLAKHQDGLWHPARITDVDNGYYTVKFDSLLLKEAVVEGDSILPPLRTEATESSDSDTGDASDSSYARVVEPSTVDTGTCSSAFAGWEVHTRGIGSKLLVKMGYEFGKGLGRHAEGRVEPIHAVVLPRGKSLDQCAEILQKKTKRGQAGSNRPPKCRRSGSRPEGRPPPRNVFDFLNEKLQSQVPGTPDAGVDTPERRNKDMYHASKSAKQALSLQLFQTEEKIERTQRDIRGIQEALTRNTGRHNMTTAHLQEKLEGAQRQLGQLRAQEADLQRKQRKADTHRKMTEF
UniProt Q8VE95: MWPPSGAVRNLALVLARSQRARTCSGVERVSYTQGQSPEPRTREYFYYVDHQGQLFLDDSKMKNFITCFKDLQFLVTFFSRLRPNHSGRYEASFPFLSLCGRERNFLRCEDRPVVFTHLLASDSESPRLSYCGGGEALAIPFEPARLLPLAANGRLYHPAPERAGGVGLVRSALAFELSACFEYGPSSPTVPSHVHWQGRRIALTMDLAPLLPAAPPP
UniProt Q8VC16: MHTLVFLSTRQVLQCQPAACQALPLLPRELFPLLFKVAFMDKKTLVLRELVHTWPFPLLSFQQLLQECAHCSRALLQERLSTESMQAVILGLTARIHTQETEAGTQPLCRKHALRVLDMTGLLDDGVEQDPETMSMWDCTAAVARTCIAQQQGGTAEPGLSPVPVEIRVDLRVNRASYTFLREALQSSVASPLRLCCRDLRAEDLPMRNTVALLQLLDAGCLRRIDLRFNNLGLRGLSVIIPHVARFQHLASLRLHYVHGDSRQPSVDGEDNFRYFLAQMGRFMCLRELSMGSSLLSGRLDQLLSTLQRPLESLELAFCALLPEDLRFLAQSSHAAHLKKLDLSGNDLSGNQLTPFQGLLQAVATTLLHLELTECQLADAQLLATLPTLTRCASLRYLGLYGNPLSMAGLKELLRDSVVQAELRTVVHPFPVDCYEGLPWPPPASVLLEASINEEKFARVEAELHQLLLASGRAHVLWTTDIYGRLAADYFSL

Compound: CN[C@@H]1C[C@H]2O[C@@](C)([C@@H]1OC)n1c3ccccc3c3c4c(c5c6ccccc6n2c5c31)C(=O)NC4 [staurosporine]
Assay: log2 fold change of tryptic peptide abundance, ligand vs vehicle (limited proteolysis) (log2 ratio); higher = more trypsin-susceptible (destabilized)
Conditions: ligand concentration: 20 uM; sample: mouse liver crude lysate; replicate design: treated separately

Row | Target | log2 fold change
1 | UniProt Q8VCM4 (peptide sequence: WYILCEKIR, peptide start residue: 362) | 0.393
2 | UniProt Q8VCP8 (peptide sequence: TDNGVLYKR, peptide start residue: 97) | 0.227
3 | UniProt Q8VCC8 (peptide sequence: YTVMSGTPEK, peptide start residue: 498) | 0.0387
4 | UniProt Q8R574 (peptide sequence: EKPPITVVGDVGGR, peptide start residue: 237) | -0.229
5 | UniProt Q8R3L2 (peptide sequence: KSCTGESSENGLEDIDR, peptide start residue: 136) | -0.311
6 | UniProt Q8R4R6 (peptide sequence: SPLLAGGSPPQPVVPAHKDK, peptide start residue: 66) | -0.144
7 | UniProt Q8R370 (peptide sequence: EAEATALR, peptide start residue: 325) | -0.315
8 | UniProt Q8VDD9 (peptide sequence: HNAAQMNGKPESSSVVR, peptide start residue: 1489) | -0.482
9 | UniProt Q8R326 (peptide sequence: HEHQLMLMR, peptide start residue: 312) | 0.56
10 | UniProt Q8VDG6 (peptide sequence: ALAAAASDPR, peptide start residue: 197) | -1.47
11 | UniProt Q8VE73 (peptide sequence: TLHLTVLR, peptide start residue: 660) | 0.221
12 | UniProt Q8R5F7 (peptide sequence: NCSMLVCSGENIHVIEK, peptide start residue: 909) | 0.33
13 | UniProt Q8VCG4 (peptide sequence: FLFQVSR, peptide start residue: 112) | -0.283
14 | UniProt Q8R3C0 (peptide sequence: AVEDDFVEMR, peptide start residue: 572) | 0.148
15 | UniProt Q8R344 (peptide sequence: VPQAKPVAVEEK, peptide start residue: 74) | 0.341
16 | UniProt Q8VBT2 (peptide sequence: ILVEPACGAALAAVYSR, peptide start residue: 264) | 0.2
17 | UniProt Q8R322 (peptide sequence: VGDLILAHLHKK, peptide start residue: 517) | 0.506
18 | UniProt Q8R3I3 (peptide sequence: LENDKEMLEALK, peptide start residue: 47) | -0.2
19 | UniProt Q8VEH6 (peptide sequence: KIAVILNEFGEGSAVEK, peptide start residue: 68) | -0.323
20 | UniProt Q8R3H9 (peptide sequence: AVLSYSEGLK, peptide start residue: 98) | -0.115
21 | UniProt Q8VDM1 (peptide sequence: QALSLQLFQTEEKIER, peptide start residue: 433) | -0.33
22 | UniProt Q8VE95 (peptide sequence: TREYFYYVDHQGQLFLDDSK, peptide start residue: 42) | 0.519
23 | UniProt Q8VC16 (peptide sequence: MHTLVFLSTR, peptide start residue: 1) | 0.312
24 | UniProt Q8VE88 (peptide sequence: KTMDVIAEGDPGFKR, peptide start residue: 179) | 0.204
25 | UniProt Q8VCT3 (peptide sequence: QHMNVSGEENPLNK, peptide start residue: 381) | -0.466
26 | UniProt Q8VEK3 (peptide sequence: RNFILDQTNVSAAAQR, peptide start residue: 551) | -0.244

An excerpt from further up, for reference:
Row | Target | log2 fold change
23 | UniProt Q8VC16 (peptide sequence: MHTLVFLSTR, peptide start residue: 1) | 0.312
24 | UniProt Q8VE88 (peptide sequence: KTMDVIAEGDPGFKR, peptide start residue: 179) | 0.204
